# Results are given in words; binding and its absence hold for the method and conditions named. Binding seen in cells or lysates may run through a third protein. These calls come from enrichment with a bait or labelling near it, and not all partners need be listed. For some of these results: Tags and fused reporters may be left off the sequences shown.
# The chains behind the UniProt entries cited, without tags or fusion partners.
# UniProt Q8NC56: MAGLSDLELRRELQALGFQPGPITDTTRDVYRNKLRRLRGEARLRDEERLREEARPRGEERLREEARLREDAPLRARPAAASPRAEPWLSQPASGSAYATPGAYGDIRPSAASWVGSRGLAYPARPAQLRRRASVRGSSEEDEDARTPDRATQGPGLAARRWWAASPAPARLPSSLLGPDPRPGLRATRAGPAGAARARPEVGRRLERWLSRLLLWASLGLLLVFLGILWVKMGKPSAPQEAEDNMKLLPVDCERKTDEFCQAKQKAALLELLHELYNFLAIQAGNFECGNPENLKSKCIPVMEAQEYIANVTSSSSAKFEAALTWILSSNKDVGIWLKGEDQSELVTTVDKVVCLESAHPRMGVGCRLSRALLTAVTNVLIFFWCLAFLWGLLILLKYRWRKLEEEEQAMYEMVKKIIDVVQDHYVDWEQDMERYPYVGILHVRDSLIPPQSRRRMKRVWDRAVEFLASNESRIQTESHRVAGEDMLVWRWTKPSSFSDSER
# UniProt Q14974: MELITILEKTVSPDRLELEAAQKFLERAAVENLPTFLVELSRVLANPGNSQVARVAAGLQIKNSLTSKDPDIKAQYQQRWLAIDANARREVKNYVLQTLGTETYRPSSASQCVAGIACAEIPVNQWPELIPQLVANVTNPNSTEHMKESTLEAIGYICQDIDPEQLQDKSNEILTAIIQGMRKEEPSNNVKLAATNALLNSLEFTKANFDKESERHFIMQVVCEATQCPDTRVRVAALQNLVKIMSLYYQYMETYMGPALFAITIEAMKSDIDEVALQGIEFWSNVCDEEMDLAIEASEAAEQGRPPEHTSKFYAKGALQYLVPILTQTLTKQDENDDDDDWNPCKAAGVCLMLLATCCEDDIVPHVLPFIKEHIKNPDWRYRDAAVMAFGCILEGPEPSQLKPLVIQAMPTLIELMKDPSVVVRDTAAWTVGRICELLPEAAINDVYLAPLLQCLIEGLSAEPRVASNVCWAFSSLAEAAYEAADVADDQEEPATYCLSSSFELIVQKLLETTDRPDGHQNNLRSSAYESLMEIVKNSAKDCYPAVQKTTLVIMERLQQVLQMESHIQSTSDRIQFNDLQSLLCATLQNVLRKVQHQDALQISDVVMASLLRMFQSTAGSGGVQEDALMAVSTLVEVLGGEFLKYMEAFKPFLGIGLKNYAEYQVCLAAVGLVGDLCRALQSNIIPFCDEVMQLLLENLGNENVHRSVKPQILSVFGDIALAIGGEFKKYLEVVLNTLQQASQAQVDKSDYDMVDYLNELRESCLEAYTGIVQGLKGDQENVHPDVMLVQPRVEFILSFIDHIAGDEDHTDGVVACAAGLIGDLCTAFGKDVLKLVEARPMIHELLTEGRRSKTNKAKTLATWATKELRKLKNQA
# UniProt Q02880: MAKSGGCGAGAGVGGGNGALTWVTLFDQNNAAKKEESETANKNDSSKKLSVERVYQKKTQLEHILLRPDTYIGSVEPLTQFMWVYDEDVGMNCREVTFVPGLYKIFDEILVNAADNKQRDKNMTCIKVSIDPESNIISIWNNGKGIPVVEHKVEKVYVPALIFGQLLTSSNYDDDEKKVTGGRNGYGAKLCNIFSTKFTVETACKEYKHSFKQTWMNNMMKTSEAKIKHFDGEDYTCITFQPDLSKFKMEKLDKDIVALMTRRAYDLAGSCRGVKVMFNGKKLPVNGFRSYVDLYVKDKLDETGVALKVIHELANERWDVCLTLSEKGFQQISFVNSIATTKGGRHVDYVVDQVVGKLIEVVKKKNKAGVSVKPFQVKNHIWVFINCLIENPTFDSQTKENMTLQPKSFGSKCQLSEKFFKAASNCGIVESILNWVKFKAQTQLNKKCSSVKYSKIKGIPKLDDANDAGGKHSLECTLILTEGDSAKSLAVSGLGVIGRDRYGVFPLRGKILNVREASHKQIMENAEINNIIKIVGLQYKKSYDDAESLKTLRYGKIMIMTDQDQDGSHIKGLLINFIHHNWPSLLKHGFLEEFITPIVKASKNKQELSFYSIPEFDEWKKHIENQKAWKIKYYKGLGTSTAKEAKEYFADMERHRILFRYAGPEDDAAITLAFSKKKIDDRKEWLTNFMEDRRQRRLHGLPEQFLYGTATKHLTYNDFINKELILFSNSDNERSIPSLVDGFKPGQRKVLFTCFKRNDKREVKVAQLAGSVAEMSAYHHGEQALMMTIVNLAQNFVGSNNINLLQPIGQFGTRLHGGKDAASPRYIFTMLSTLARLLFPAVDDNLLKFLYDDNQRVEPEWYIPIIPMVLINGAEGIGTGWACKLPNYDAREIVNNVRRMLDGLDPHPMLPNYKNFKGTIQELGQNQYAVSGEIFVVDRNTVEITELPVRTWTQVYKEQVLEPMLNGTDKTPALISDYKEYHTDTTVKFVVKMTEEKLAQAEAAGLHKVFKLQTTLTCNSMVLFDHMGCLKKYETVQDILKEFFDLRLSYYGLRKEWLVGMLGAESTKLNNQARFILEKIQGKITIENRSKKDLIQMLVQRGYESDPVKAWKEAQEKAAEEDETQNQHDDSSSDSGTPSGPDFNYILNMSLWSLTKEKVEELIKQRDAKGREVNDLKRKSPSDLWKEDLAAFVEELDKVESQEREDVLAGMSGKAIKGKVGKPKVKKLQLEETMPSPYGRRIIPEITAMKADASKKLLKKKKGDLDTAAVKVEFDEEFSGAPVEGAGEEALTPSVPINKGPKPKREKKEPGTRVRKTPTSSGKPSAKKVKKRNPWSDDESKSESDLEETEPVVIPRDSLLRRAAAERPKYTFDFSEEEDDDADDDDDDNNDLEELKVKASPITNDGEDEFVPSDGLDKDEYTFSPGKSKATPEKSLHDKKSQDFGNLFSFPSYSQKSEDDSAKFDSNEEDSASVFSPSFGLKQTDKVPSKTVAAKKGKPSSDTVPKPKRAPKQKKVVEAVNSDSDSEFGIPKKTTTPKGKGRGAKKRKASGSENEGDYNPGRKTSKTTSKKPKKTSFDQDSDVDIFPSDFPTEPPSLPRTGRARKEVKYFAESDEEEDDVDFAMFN
# UniProt O95573: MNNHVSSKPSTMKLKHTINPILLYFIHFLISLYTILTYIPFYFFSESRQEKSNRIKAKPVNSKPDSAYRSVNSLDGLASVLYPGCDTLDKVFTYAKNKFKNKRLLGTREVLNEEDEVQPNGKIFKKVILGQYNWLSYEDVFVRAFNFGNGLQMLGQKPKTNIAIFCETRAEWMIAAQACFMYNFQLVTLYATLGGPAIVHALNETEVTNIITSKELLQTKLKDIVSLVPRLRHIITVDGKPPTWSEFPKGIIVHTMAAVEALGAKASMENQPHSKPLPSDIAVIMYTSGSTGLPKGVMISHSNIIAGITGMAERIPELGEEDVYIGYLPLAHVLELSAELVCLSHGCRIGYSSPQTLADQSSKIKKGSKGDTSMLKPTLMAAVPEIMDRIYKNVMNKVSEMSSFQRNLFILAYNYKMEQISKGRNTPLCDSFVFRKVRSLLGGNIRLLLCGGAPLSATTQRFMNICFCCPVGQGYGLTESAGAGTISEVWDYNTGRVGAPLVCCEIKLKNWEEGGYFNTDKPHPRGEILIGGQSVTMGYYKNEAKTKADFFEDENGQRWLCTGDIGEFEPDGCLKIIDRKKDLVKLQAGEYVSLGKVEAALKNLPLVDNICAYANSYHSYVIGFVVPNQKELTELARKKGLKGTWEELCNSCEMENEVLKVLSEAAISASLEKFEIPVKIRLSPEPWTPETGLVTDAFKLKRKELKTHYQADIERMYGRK
# B1: Vaccinia-related kinase 1 (VRK1) (protein, UniProt Q99986 1-396)
# chain: MPRVKAAQAGRQSSAKRHLAEQFAVGEIITDMAKKEWKVGLPIGQGGFGCIYLADMNSSESVGSDAPCVVKVEPSDNGPLFTELKFYQRAAKPEQIQKWIRTRKLKYLGVPKYWGSGLHDKNGKSYRFMIMDRFGSDLQKIYEANAKRFSRKTVLQLSLRILDILEYIHEHEYVHGDIKASNLLLNYKNPDQVYLVDYGLAYRYCPEGVHKEYKEDPKRCHDGTIEFTSIDAHNGVAPSRRGDLEILGYCMIQWLTGHLPWEDNLKDPKYVRDSKIRYRENIASLMDKCFPEKNKPGEIAKYMETVKLLDYTEKPLYENLRDILLQGLKAIGSKDDGKLDLSVVENGGLKAKTITKKRKKEIEESKEPGVEDTEWSNTQTEEAIQTRSRTRKRVQK
# B2: Spastin (protein, UniProt Q9UBP0 1-616)
# chain: MNSPGGRGKKKGSGGASNPVPPRPPPPCLAPAPPAAGPAPPPESPHKRNLYYFSYPLFVGFALLRLVAFHLGLLFVWLCQRFSRALMAAKRSSGAAPAPASASAPAPVPGGEAERVRVFHKQAFEYISIALRIDEDEKAGQKEQAVEWYKKGIEELEKGIAVIVTGQGEQCERARRLQAKMMTNLVMAKDRLQLLEKMQPVLPFSKSQTDVYNDSTNLACRNGHLQSESGAVPKRKDPLTHTSNSLPRSKTVMKTGSAGLSGHHRAPSYSGLSMVSGVKQGSGPAPTTHKGTPKTNRTNKPSTPTTATRKKKDLKNFRNVDSNLANLIMNEIVDNGTAVKFDDIAGQDLAKQALQEIVILPSLRPELFTGLRAPARGLLLFGPPGNGKTMLAKAVAAESNATFFNISAASLTSKYVGEGEKLVRALFAVARELQPSIIFIDEVDSLLCERREGEHDASRRLKTEFLIEFDGVQSAGDDRVLVMGATNRPQELDEAVLRRFIKRVYVSLPNEETRLLLLKNLLCKQGSPLTQKELAQLARMTDGYSGSDLTALAKDAALGPIRELKPEQVKNMSASEMRNIRLSDFTESLKKIKRSVSPQTLEAYIRWNKDFGDTTV
# B3: CC2D1B (protein, UniProt Q5T0F9 1-858)
# chain: MMPGPRPRKGPQARGQGVAAAKQMGLFMEFGPEDMLLGMDEAEDDEDLEAELLALTGEAQTTGKKPAPKGQAPLPMAHIEKLAADCMRDVEEEEEEEGLEEDAELLTELQEVLGVDEETEPLDGDEVADPGGSEEENGLEDTEPPVQTAVLTASAPAAQAGASQGLHALLEERIHNYREAAASAKEAGEAAKARRCERGLKTLESQLASVRRGRKINEDEIPPPVALGKRPLAPQEPANRSPETDPPAPPALESDNPSQPETSLPGISAQPVSDLDPDPRALLSSRQREYKVAALSAKRAGELDRARELMRIGKRFGAVLEALEKGQPVDLSAMPPAPEDLKPQQASQAPTAPSVIPPAVERVQPVMAPDVPATPVAPTESQTVLDALQQRLNKYREAGIQARSGGDERKARMHERIAKQYQDAIRAHRAGRKVNFAELPVPPGFPPIPGLESTMGVEEDAVAATLAAAEKLASAEDSAPADKDEDEPPGHLQGEPPAQAPVAKKPARPTVPSSQRLPEPRASSSKESPSPSVREQLALLEARKLQYQRAALQAKRSQDLEQAKAYLRVAKWLEAQIIQARSGRPVDLSKVPSPLTDEEGDFILIHHEDLRLSQKAEEVYAQLQKMLLEQQEKCLLFSKQFMHQGNVAETTRFEKLAQDRKKQLEILQLAQAQGLDPPTHHFELKTFQTVRIFSELNSTEMHLIIVRGMNLPAPPGVTPDDLDAFVRFEFHYPNSDQAQKSKTAVVKNTNSPEFDQLFKLNINRNHRGFKRVIQSKGIKFEIFHKGSFFRSDKLVGTAHLKLERLENECEIREIVEVLDGRKPTGGKLEVKVRLREPLSGQDVQMVTENWLVLEPRGL
# B4: Calpain 7 (CAPN7) (protein, UniProt Q9Y6W3 1-813)
# chain: MDATALERDAVQFARLAVQRDHEGRYSEAVFYYKEAAQALIYAEMAGSSLENIQEKITEYLERVQALHSAVQSKSADPLKSKHQLDLERAHFLVTQAFDEDEKENVEDAIELYTEAVDLCLKTSYETADKVLQNKLKQLARQALDRAEALSEPLTKPVGKISSTSVKPKPPPVRAHFPLGANPFLERPQSFISPQSCDAQGQRYTAEEIEVLRTTSKINGIEYVPFMNVDLRERFAYPMPFCDRWGKLPLSPKQKTTFSKWVRPEDLTNNPTMIYTVSSFSIKQTIVSDCSFVASLAISAAYERRFNKKLITGIIYPQNKDGEPEYNPCGKYMVKLHLNGVPRKVIIDDQLPVDHKGELLCSYSNNKSELWVSLIEKAYMKVMGGYDFPGSNSNIDLHALTGWIPERIAMHSDSQTFSKDNSFRMLYQRFHKGDVLITASTGMMTEAEGEKWGLVPTHAYAVLDIREFKGLRFIQLKNPWSHLRWKGRYSENDVKNWTPELQKYLNFDPRTAQKIDNGIFWISWDDLCQYYDVIYLSWNPGLFKESTCIHSTWDAKQGPVKDAYSLANNPQYKLEVQCPQGGAAVWVLLSRHITDKDDFANNREFITMVVYKTDGKKVYYPADPPPYIDGIRINSPHYLTKIKLTTPGTHTFTLVVSQYEKQNTIHYTVRVYSACSFTFSKIPSPYTLSKRINGKWSGQSAGGCGNFQETHKNNPIYQFHIEKTGPLLIELRGPRQYSVGFEVVTVSTLGDPGPHGFLRKSSGDYRCGFCYLELENIPSGIFNIIPSTFLPKQEGPFFLDFNSIIPIKITQLQ
# B5: CHMP7^WT (doxycycline-inducible wildtype CHMP7 allele) (protein, UniProt Q8WUX9 1-453)
# chain: MWSPEREAEAPAGGDPAGLLPPEWEEDEERMSFLFSAFKRSREVNSTDWDSKMGFWAPLVLSHSRRQGVVRLRLRDLQEAFQRKGSVPLGLATVLQDLLRRGELQRESDFMASVDSSWISWGVGVFLLKPLKWTLSNMLGDNKVPAEEVLVAVELLKEKAEEVYRLYQNSPLSSHPVVALSELSTLCANSCPDERTFYLVLLQLQKEKRVTVLEQNGEKIVKFARGPRAKVSPVNDVDVGVYQLMQSEQLLSRKVESLSQEAERCKEEARRACRAGKKQLALRSLKAKQRTEKRIEALHAKLDTVQGILDRIYASQTDQMVFNAYQAGVGALKLSMKDVTVEKAESLVDQIQELCDTQDEVSQTLAGGVTNGLDFDSEELEKELDILLQDTTKEPLDLPDNPRNRHFTNSVPNPRISDAELEAELEKLSLSEGGLVPSSKSPKRQLEPTLKPL
# B6: STAMBP/AMSH (protein, UniProt O95630 1-424)
# chain: MSDHGDVSLPPEDRVRALSQLGSAVEVNEDIPPRRYFRSGVEIIRMASIYSEEGNIEHAFILYNKYITLFIEKLPKHRDYKSAVIPEKKDTVKKLKEIAFPKAEELKAELLKRYTKEYTEYNEEKKKEAEELARNMAIQQELEKEKQRVAQQKQQQLEQEQFHAFEEMIRNQELEKERLKIVQEFGKVDPGLGGPLVPDLEKPSLDVFPTLTVSSIQPSDCHTTVRPAKPPVVDRSLKPGALSNSESIPTIDGLRHVVVPGRLCPQFLQLASANTARGVETCGILCGKLMRNEFTITHVLIPKQSAGSDYCNTENEEELFLIQDQQGLITLGWIHTHPTQTAFLSSVDLHTHCSYQMMLPESVAIVCSPKFQETGFFKLTDHGLEEISSCRQKGFHPHSKDPPLFCSCSHVTVVDRAVTITDLR
# B7: USP8 (protein, UniProt P40818 1-1118)
# chain: MPAVASVPKELYLSSSLKDLNKKTEVKPEKISTKSYVHSALKIFKTAEECRLDRDEERAYVLYMKYVTVYNLIKKRPDFKQQQDYFHSILGPGNIKKAVEEAERLSESLKLRYEEAEVRKKLEEKDRQEEAQRLQQKRQETGREDGGTLAKGSLENVLDSKDKTQKSNGEKNEKCETKEKGAITAKELYTMMTDKNISLIIMDARRMQDYQDSCILHSLSVPEEAISPGVTASWIEAHLPDDSKDTWKKRGNVEYVVLLDWFSSAKDLQIGTTLRSLKDALFKWESKTVLRNEPLVLEGGYENWLLCYPQYTTNAKVTPPPRRQNEEVSISLDFTYPSLEESIPSKPAAQTPPASIEVDENIELISGQNERMGPLNISTPVEPVAASKSDVSPIIQPVPSIKNVPQIDRTKKPAVKLPEEHRIKSESTNHEQQSPQSGKVIPDRSTKPVVFSPTLMLTDEEKARIHAETALLMEKNKQEKELRERQQEEQKEKLRKEEQEQKAKKKQEAEENEITEKQQKAKEEMEKKESEQAKKEDKETSAKRGKEITGVKRQSKSEHETSDAKKSVEDRGKRCPTPEIQKKSTGDVPHTSVTGDSGSGKPFKIKGQPESGILRTGTFREDTDDTERNKAQREPLTRARSEEMGRIVPGLPSGWAKFLDPITGTFRYYHSPTNTVHMYPPEMAPSSAPPSTPPTHKAKPQIPAERDREPSKLKRSYSSPDITQAIQEEEKRKPTVTPTVNRENKPTCYPKAEISRLSASQIRNLNPVFGGSGPALTGLRNLGNTCYMNSILQCLCNAPHLADYFNRNCYQDDINRSNLLGHKGEVAEEFGIIMKALWTGQYRYISPKDFKITIGKINDQFAGYSQQDSQELLLFLMDGLHEDLNKADNRKRYKEENNDHLDDFKAAEHAWQKHKQLNESIIVALFQGQFKSTVQCLTCHKKSRTFEAFMYLSLPLASTSKCTLQDCLRLFSKEEKLTDNNRFYCSHCRARRDSLKKIEIWKLPPVLLVHLKRFSYDGRWKQKLQTSVDFPLENLDLSQYVIGPKNNLKKYNLFSVSNHYGGLDGGHYTAYCKNAARQRWFKFDDHEVSDISVSSVKSSAAYILFYTSLGPRVTDVAT
# Experiments:
# CHMP4B-APEX2-mCitrine = biological target: T1, CHMP4B-APEX2-mCitrine (UniProt Q9H444); test: proximity labelling; APEX2 fusions of LEMD2 or CHMP4B in RPE1 cells after DOX induction of CHMP7^WT (12 h), CHMP7^NLS (6 h) or CHMP7^NES* (3, 6, 9 h); 500 μM biotin-phenol 3 h, 2 mM H2O2 2 min; RIPA lysis, streptavidin magnetic beads, label-free quantitative LC-MS/MS; compared with parental cells without APEX2 fusions
# T1 sequence: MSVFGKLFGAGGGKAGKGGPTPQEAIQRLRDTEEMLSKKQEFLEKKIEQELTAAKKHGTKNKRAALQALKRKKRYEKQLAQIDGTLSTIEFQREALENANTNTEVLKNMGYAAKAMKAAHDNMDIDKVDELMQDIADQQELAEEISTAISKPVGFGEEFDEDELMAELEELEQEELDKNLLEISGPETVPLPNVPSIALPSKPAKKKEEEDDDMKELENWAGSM
# LEMD2-APEX2-mCitrine = LEMD2-APEX2-mCitrine (UniProt Q8NC56); test: as above
Molecule,binding (CHMP4B-APEX2-mCitrine),binding (LEMD2-APEX2-mCitrine)
"CHMP7^NES* (CHMP7 mutated in its nuclear export signal, doxycycline-inducible) (from UniProt Q8WUX9)",binds,
KPNB1 (endogenous) (from UniProt Q14974 1-876),,binds
Topoisomerase 2B (Top2B) (from UniProt Q02880 1-1626),binds,binds
acyl-CoA synthetase 3 (ACSL3) (from UniProt O95573 1-720),binds,binds
Nesprin-1 (SYNE1) (from UniProt Q8NF91 1-8797),binds,binds
B1,binds,binds
B2,,binds
B3,binds,binds
B4,binds,binds
B5,binds,
B6,,binds
B7,binds,binds
